Hit rate of the full screen: of about 31,000 sequences, about 1,400 (4.5%) were called active.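 How the source made its calls: active means median seed-adjusted z-score above 1 or below -1; inactive means the rest.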 The list shows a part of the results.
Assay: Novel Modifiers of Survival Motor Neuron (SMN) Protein: Gene Identification via Genome-wide siRNA Screen;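 further: luminescence tracks full-length SMN protein made from the SMN2 reporter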
Conditions: HEK293T SMN2-luciferase reporter, siRNA knockdown, 72 h; actives lie on both sides
Method in brief: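 HEK293T cells stably expressing an SMN2 splicing/cDNA-luciferase reporter were reverse-transfected with a druggable-genome siRNA library and read by luminescence at 72 hours; hits defined by MAD score above 1.0 or below -1.0.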

Sequence	median seed-adjusted z-score
CGCUGAAAAUUCCUAUGUUTT against AP3D1	inactive: 0.213
GCAGUGCUCGGCAAUUUCATT against SLC2A6	inactive: 0.616
GGCAAGUAGAUAGUACAUUTT against ZNF507	inactive: -0.262
GACGGAUCCUUGACACUUUTT against ARSE	inactive: 0.705
GCGAAAUUUUGGAUAUCAATT against KIF23	inactive: -0.449
CCAUUGAAGAGAACGUAUATT against HAVCR2	inactive: 0.205
GGAAGAGUGGGUUCCAAGATT against SPHK1	inactive: -0.249
AGACUGUUCUAGAUAAAUUTT against FBXO27	inactive: -0.286
GAACAGCUCACACUACCAATT against MUC5B	inactive: 0.141
CAAUUGAGGAUGCUAUAAATT against XDH	inactive: 0.806
CGCUUCUACUACUUCCUAUTT against GPR152	inactive: -0.9
GGACCACAGACAUAGUAGATT against NCOA5	inactive: 0.947
GGUCCGUUGUCCAUCACAATT against UBAC2	inactive: 0.611
GCCUCACAGGGAUCUUGAATT against PLUNC	inactive: 0.254
GCUCGGUAUUGAGGAAGUATT against NLN	inactive: 0.248
GGAGCUCUCUUUACGAGAATT against SHROOM3	inactive: 0.779
AGCUUUUCUUGAGAGCUCATT against YY2	inactive: 0.363
GCAUAUUUCAGUUUGUGUATT against SSX5	inactive: -0.0517
GACACUCACUGCUAAGUUUTT against KIF21B	inactive: 0.934
GUAUCUAAGAAAUUGAAAATT against ZNF575	inactive: 0.458
CUCUUAUAGUUGAUCGUGATT against ATAD2B	inactive: 0.0192
GGCUUGAACCUUCAAAGCUTT against GATA1	inactive: 0.371
GCUCCUGUUUUAUACUGCUTT against TIPARP	inactive: 0.372
AGAUGGUAGUAGAGAAGCATT against WNT3	inactive: -0.839
CAACUACUCCGAGGCAGAATT against EPN3	inactive: 0.184
GCAAGAUCAUGGUUCUGGUTT against GRIN2C	inactive: -0.3
CGUUUUGCCUCUCCAAAAATT against MSC	inactive: -0.208
CGCAAUAACUGUUUGGUAUTT against EGLN1	active: 2.05
GGAGAAGGAUGGAACUCUUTT against SPATA21	active: -1.03
AGAAGGACGUGUCCAAGGATT against FOXC2	inactive: -0.792

Two entries from above, with bars between the fields:
Sequence | median seed-adjusted z-score
GUAUCUAAGAAAUUGAAAATT against ZNF575 | inactive: 0.458
CUCUUAUAGUUGAUCGUGATT against ATAD2B | inactive: 0.0192

Reference: PubChem BioAssay AID1347426 (Functional Genomics Laboratory (NCATS/FGL), 2020)
